Test results from publication PMC3991585.

Molecular target: GhMPK20 (GAL4 DNA-binding domain fusion, pGBKT7) (Gossypium hirsutum (cotton)) (UniProt S4S5K8)
Test: two-hybrid

- binding: binds
Substance: GhWRKY40 (GAL4 activation domain fusion, pGADT7) (from UniProt A0A023INS2)

No constants are given. Whether binding was seen depends on the method and setting. A result given as binding can be weak or reduced; the word gives no strength.
